Laboratory results reported in PubChem BioAssay AID1671190 (National Center for Advancing Translational Sciences (NCATS), 2021).
The whole screen tested about 580,000 compounds, of which about 6,100 (1.1%) were called active. Inconclusive means that the source gave no clear call. Such entries were picked first, then a sample of the others. The call rests on the fitted dose curve; in most records, active means well fitted inhibition curve with a large enough effect; inconclusive means small, poorly fitted or top-dose-only effect, or another doubt; inactive means no such curve, though single readings can be large or run the other way. Potencies beside an inconclusive call are fits to weak or partial responses and may not hold up.
On the % scale 0 is the no-effect control and ±100 the full control effect; potency means the concentration at half of the fitted maximal effect.

The chains behind the UniProt entries cited, without tags or fusion partners. Where a name states a change or a piece, a line headed by the entry shows the natural chain unless it says otherwise.
UniProt P18054: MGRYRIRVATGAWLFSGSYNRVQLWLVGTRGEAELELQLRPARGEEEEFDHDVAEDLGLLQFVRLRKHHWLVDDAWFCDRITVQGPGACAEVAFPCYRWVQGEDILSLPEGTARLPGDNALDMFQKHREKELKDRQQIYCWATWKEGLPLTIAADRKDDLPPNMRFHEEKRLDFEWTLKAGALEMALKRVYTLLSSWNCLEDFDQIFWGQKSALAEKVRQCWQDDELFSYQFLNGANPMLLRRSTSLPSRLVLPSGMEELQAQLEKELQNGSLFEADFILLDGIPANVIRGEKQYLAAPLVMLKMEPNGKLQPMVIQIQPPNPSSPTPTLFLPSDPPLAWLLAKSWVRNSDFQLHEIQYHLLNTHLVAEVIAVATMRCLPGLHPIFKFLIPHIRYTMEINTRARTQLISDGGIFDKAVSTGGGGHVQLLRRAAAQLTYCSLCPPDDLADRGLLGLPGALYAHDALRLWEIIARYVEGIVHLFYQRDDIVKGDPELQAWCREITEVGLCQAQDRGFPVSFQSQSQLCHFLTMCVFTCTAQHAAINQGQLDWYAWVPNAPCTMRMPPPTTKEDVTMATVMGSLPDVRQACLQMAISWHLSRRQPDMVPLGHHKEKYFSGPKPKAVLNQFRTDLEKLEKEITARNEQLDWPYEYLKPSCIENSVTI

Each compound was assayed against Polyunsaturated fatty acid lipoxygenase ALOX12 (Homo sapiens) (UniProt P18054) (assay: Primary qHTS assay for inhibitors of human arachidonate 12S-lipoxygenase (ALOX12): Round 2). Conditions: purified 12hLO, xylenol orange hydroperoxide absorbance; activity change, negative = inhibition: at 108 µM (top of the series) unless noted.
Procedure, shortened: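 Hydroperoxide product was detected by ferrous iron/xylenol orange as the 573 to 405 nm absorbance ratio. Arachidonic acid at 40 uM (final) was turned over for 30 min at room temperature by 150 nM human 12hLO, pH 7.0 Hepes buffer, after 15 min compound preincubation.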
For `Cc1cc(C(=O)N(Cc2ccccn2)C2CC2)sc1C`, the Potency was inconclusive: 6.31 µM [inhibitor, full curve]. For `NC(N)=NN=C(c1ccc(F)cc1)c1ccc(C(F)(F)F)cc1`, the Potency was inconclusive: 39.8 µM [inhibitor, partial curve, poor fit]. With `COCCN(C(=O)c1ccc(N2CCCC2=O)cc1)c1c(N)n(CC(C)C)c(=O)[nH]c1=O` the Potency was inconclusive: 112 µM [inhibitor, single point]. `CN1C[C@H](O)C[C@H]1c1nnc2n1CCN(C(=O)C1CCC1)CC2` was tested, and the Potency was inconclusive: 2.24 µM [inhibitor, full curve, poor fit]. With `Cc1onc(NC(=O)CSCC(=O)O)c1Br` the Potency was inconclusive: 35.5 µM [inhibitor, single point]. `CC1(C(=O)NS(=O)(=O)C2CC2)CCN(C(=O)c2cc(F)cc(F)c2)C1` (centres undefined) was tested, and the “activity change, negative = inhibition” value was inactive: 13.4%. `O=C(NCc1ccccc1)c1ccc(N2CCC3(CC2)CC(c2ccccc2)=NO3)c([N+](=O)[O-])c1` was tested, and the “activity change, negative = inhibition” value was inactive: -1.07%. In the case of `COc1cc(NC(=O)C(Cc2ccccc2)n2c(=O)[nH]c3ccccc3c2=O)cc(OC)c1` (centres undefined), the Potency is reported as inconclusive: 112 µM [inhibitor, single point]. In the case of `O=C(C1=C[C@H](c2ccc(Br)cc2)C[C@H](OCCCCO)O1)N1CCOCC1`, the Potency is reported as inconclusive: 50.1 µM [inhibitor, single point]. For `CN(C)Cc1cc(C[C@@H]2C[C@H](NC(=O)CC(C)(C)C)C2(C)C)no1`, the “activity change, negative = inhibition” value was inactive: 39.1% [at 176 µM]. `COc1ccc(C(=O)NC(=S)NNC(=O)c2ccc(NC(C)=O)cc2)cc1Br` was tested, and the Potency was active: 12.6 µM. With `CCOc1cccc(-c2nc(C(=O)NCc3ccccc3)cs2)c1` the Potency was inconclusive: 56.2 µM [inhibitor, single point]. `COCc1nnc(NC(=O)c2ccccc2[N+](=O)[O-])s1` was tested, and the “activity change, negative = inhibition” value was inactive: -22.3%. `O=C(NCc1ccc(F)cc1)c1ccc(Nc2nc3ccccc3n3nnnc23)cc1` was tested, and the Potency was inconclusive: 6.31 µM [inhibitor, partial curve, poor fit]. `COc1ccc(-c2c(-c3cc(OC)cc(OC)c3)n(C)c3ccc(-c4ccc(S(N)(=O)=O)cc4)cc23)cc1` was tested, and the “activity change, negative = inhibition” value was inactive: 2.21%. With `Nc1nnc(N)c2ccccc12` the “activity change, negative = inhibition” value was inactive: 0%. `O=C(COc1ccc(Cl)cc1)N1CCN(C(=O)c2cccc(F)c2)CC1` was tested, and the Potency was inconclusive: 44.7 µM [inhibitor, partial curve, poor fit]. With `Cc1nn(-c2ccccc2)nc1CNC(=O)C(C)Cc1ccccc1` (centres undefined) the Potency was inconclusive: 3.98 µM [inhibitor, full curve, poor fit]. With `Cc1ccc(NC(=O)N2CCC(CCNC(=O)c3cccc(F)c3)CC2)cc1` the “activity change, negative = inhibition” value was inactive: 34.8%.
